In PubChem BioAssay AID624297 (National Center for Advancing Translational Sciences (NCATS), 2012):
Hit rate of the full screen: of about 340,000 compounds, about 6,200 (1.8%) were called active. The inconclusive results got no clear call from the source; some entries with a clear call stand among them for comparison. Calls follow the shape of the dose curve; as a rule, active = well fitted activation curve with a large enough effect; inconclusive = small, poorly fitted or top-dose-only effect; inactive = no such curve, though single readings can be large or run the other way. Where the call is inconclusive, the potency comes from a doubtful curve fit.

Assay: A quantitative high throughput screen for small molecules that induce DNA re-replication in SW480 colon adenocarcinoma cells. Also: nearly all actives have a fitted effect of over 55% in size. As to re-replication activation: % of control where 0% means no effect.
Conditions: Hoechst DNA content imaging, 48 h; re-replication activation: at 46.1 µM (top of the series) unless noted
Method in brief: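 250 cells/well; 23 nL cpd via pin tool; 48 hr, 37 C, 5% CO2; Hoechst 40 min; imager read of total nuclear intensity, ex 405/em 500-530 nm.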
Potency is read from the fitted curve at half-maximal effect.

Compound	Potency	re-replication activation
COC(=O)c1[nH]c2ccc(Br)cc2c1NC(=O)C(C)N1CCN(C2CCCCC2)CC1 (stereo unspecified)	inconclusive: 20.6 µM [activator, partial curve, poor fit]	–
CCN(CC(=O)Nc1c(F)cccc1F)C(=O)CSc1ccccc1	inconclusive: 14.6 µM [activator, partial curve, poor fit]	–
COC(=O)[C@]1(C)N[C@H](CN(C)S(=O)(=O)c2ccc(-c3ccccc3)cc2)[C@@H]2C(=O)N(Cc3ccccc3)C(=O)[C@@H]21	–	inactive: 3.98%
COCCCNC(=O)c1ccccc1N(Cc1ccccc1)S(=O)(=O)c1ccc(OC)cc1	inconclusive: 18.4 µM [activator, single point]	–
O=C(C[n+]1cccc2ccccc21)c1ccc(Br)cc1	–	inconclusive: 60.7% [activator]
CCOC(=O)C1CCCN(C(=S)NC(=O)/C=C/c2ccc(F)cc2)C1 (stereo unspecified)	–	inactive: -0.0998%
Cc1ccc(C(=O)Nc2nc3ccc(Cl)cc3s2)o1	inconclusive: 14.6 µM [activator, partial curve, poor fit]	–
O=C(O)c1cc(-c2ccc(/C=N/Nc3ccc(Cl)cc3)o2)ccc1Cl	inconclusive: 18.4 µM [activator, single point]	–
COc1ccc(C2=NOC(C)(c3sc(-c4ccc(Cl)cc4)nc3C)C2)cc1 (stereo unspecified)	inconclusive: 0.517 µM [activator, full curve]	–
COc1ccc(-n2ccnc2SCC(=O)NC2CCCC2)cc1	–	inactive: -1.02%
CC1(C)C[C@@H]2C[C@@](C)(CN2C(=O)c2ccccc2)C1	inconclusive: 29.1 µM [activator, single point]	–
O=C(NC1CCCCC1)NC1(C(=O)NCCCN2CCOCC2)CCCCC1	inconclusive: 0.366 µM [activator, full curve, poor fit]	–
COc1cc2c(cc1NC(=O)CSc1nnc(Cc3cccs3)n1Cc1ccco1)oc1ccccc12	inconclusive: 29.1 µM [activator, single point]	–
COc1cc2c(cc1NC(=O)CSCC(=O)O)oc1ccccc12	–	inactive: 1.24% [at 9.22 µM]
CN(c1cccc(Cl)c1)S(=O)(=O)c1cccc(C(=O)Nc2nc3ccccc3[nH]2)c1	inconclusive: 23.1 µM [activator, single point]	–
CCn1nnc(NC(=O)c2cccnc2Cl)n1	–	inactive: -1.17%
Cc1ccnc(N2CCC(C(=O)Nc3ccc4c(c3)OCCO4)CC2)n1	–	inactive: -6.64%
CCN1CCN(c2cc(C)c3cc(NC(=S)N4CCOCC4)ccc3n2)CC1	active: 16.4 µM	–
Cc1ccccc1NC(=O)COc1ccc(Br)cc1C	–	inactive: -3.83%
Cc1cccc(NC(=O)c2ccc(S(=O)(=O)N3CCCC3)cc2)c1C	inconclusive: 3.26 µM [activator, single point]	–
C[C@H]1CN([C@@H](C)CO)C(=O)c2cc(NC(=O)C3CCCCC3)ccc2O[C@H]1CN(C)S(=O)(=O)c1ccccc1	inconclusive: 1.84 µM [activator, single point]	–
COCCCNc1nc(N)c([N+](=O)[O-])c(Nc2cc(OC)ccc2OC)n1	inconclusive: 0.82 µM [activator, full curve, poor fit]	–

14 entries already listed, sorted by heavy-atom count, high to low.
Compound	Potency	re-replication activation
COC(=O)[C@]1(C)N[C@H](CN(C)S(=O)(=O)c2ccc(-c3ccccc3)cc2)[C@@H]2C(=O)N(Cc3ccccc3)C(=O)[C@@H]21	–	inactive: 3.98%
C[C@H]1CN([C@@H](C)CO)C(=O)c2cc(NC(=O)C3CCCCC3)ccc2O[C@H]1CN(C)S(=O)(=O)c1ccccc1	inconclusive: 1.84 µM [activator, single point]	–
COc1cc2c(cc1NC(=O)CSc1nnc(Cc3cccs3)n1Cc1ccco1)oc1ccccc12	inconclusive: 29.1 µM [activator, single point]	–
COC(=O)c1[nH]c2ccc(Br)cc2c1NC(=O)C(C)N1CCN(C2CCCCC2)CC1 (stereo unspecified)	inconclusive: 20.6 µM [activator, partial curve, poor fit]	–
CN(c1cccc(Cl)c1)S(=O)(=O)c1cccc(C(=O)Nc2nc3ccccc3[nH]2)c1	inconclusive: 23.1 µM [activator, single point]	–
O=C(NC1CCCCC1)NC1(C(=O)NCCCN2CCOCC2)CCCCC1	inconclusive: 0.366 µM [activator, full curve, poor fit]	–
COc1ccc(C2=NOC(C)(c3sc(-c4ccc(Cl)cc4)nc3C)C2)cc1 (stereo unspecified)	inconclusive: 0.517 µM [activator, full curve]	–
Cc1ccnc(N2CCC(C(=O)Nc3ccc4c(c3)OCCO4)CC2)n1	–	inactive: -6.64%
CCN(CC(=O)Nc1c(F)cccc1F)C(=O)CSc1ccccc1	inconclusive: 14.6 µM [activator, partial curve, poor fit]	–
COc1cc2c(cc1NC(=O)CSCC(=O)O)oc1ccccc12	–	inactive: 1.24% [at 9.22 µM]
COc1ccc(-n2ccnc2SCC(=O)NC2CCCC2)cc1	–	inactive: -1.02%
O=C(C[n+]1cccc2ccccc21)c1ccc(Br)cc1	–	inconclusive: 60.7% [activator]
CC1(C)C[C@@H]2C[C@@](C)(CN2C(=O)c2ccccc2)C1	inconclusive: 29.1 µM [activator, single point]	–
CCn1nnc(NC(=O)c2cccnc2Cl)n1	–	inactive: -1.17%

Further structures.

Compound	Potency	re-replication activation
Nc1ncc(-c2nnnn2-c2ccc(Cl)cc2)c(-c2ccc(Cl)cc2)n1	active: 2.91 µM	–
CCOC(=O)c1c(-c2ccc(F)cc2)csc1NC(=O)c1c(-c2ccccc2)noc1C	inconclusive: 16.4 µM [activator, partial curve, poor fit]	–
CC1CCCCC1NC(=O)c1cc2c(=O)n3ccccc3nc2n1C (stereo unspecified)	inconclusive: 0.517 µM [activator, full curve, poor fit]	–
C#CCn1c(=NC(=O)c2ccc(S(=O)(=O)N3CCc4ccccc4C3)cc2)sc2cc(S(N)(=O)=O)ccc21	inconclusive: 4.61 µM [activator, full curve, poor fit]	–
CC(C)c1ccc(CCNC(=O)CSC(=S)N2CCCC2)cc1	inconclusive: 35.5 µM [activator, single point]	–
COc1cccc(-n2c(=O)n(Cc3ccccc3)c(=O)c3[nH]cnc32)c1C	–	inactive: -80.2%
CCCCCc1c(C)[nH]c2nc3ccccc3n2c1=O	–	inactive: -5.4%
O=C(CCC(=O)NNC(=O)Nc1ccc(Cl)cc1)NCc1ccccc1	–	inactive: -4.1%
Cn1cnnc1SCC(=O)NC(=O)NCc1ccccc1	inconclusive: 3.26 µM [activator, single point]	–
O=C1NC(=S)SC1=Cc1ccc(Cl)cc1	inconclusive: 20.6 µM [activator, partial curve, poor fit]	–
CN(C)c1ccc(C(=O)/C=C/c2ccccc2)cc1	inconclusive: 23.1 µM [activator, single point]	–
O=C(N/N=C/c1ccc(O)cc1O)NC12CC3CC(CC(C3)C1)C2	inconclusive: 16.4 µM [activator, single point]	–
CCN(CCCNC(=O)c1ccc2c(c1)NC(=O)CN2C)c1cccc(C)c1	inconclusive: 18.4 µM [activator, single point]	–
CNc1ccc(S(=O)(=O)NC)cc1[N+](=O)[O-]	inconclusive: 2.06 µM [activator, partial curve, poor fit]	–
CN(CC(=O)Nc1ccc(Cl)c(C(F)(F)F)c1)C(=O)c1cc(=O)c2ccccc2o1	inconclusive: 32.6 µM [activator, partial curve, poor fit]	–
CSCCC(NC(=O)c1cccc(C)c1)C(=O)OCN1C(=O)c2ccccc2C1=O (stereo unspecified)	–	inactive: -2.34%
O=C(O)c1c(NC(=O)N(CCO)Cc2ccccc2)sc2c1CCCC2	–	inactive: 3.82%
COC(=O)c1c(C)[nH]c(C(=O)/C=C/c2ccccc2F)c1C	inconclusive: 23.1 µM [activator, partial curve, poor fit]	–
O=C(CCN1CCOCC1)c1ccc(Br)cc1	inconclusive: 16.4 µM [activator, single point]	–
O=C(Nc1nnc(-c2ccncc2)o1)c1ccc2ccccc2c1	inconclusive: 29.1 µM [activator, single point]	–
Cc1ccc(NC(=S)NCc2ccc(F)cc2)c(C)c1	inconclusive: 1.16 µM [activator, single point]	–
Cc1ccn2cc(CNS(=O)(=O)c3ccc4ccccc4c3)nc2c1	inconclusive: 29.1 µM [activator, single point]	–

Compound	Potency	re-replication activation
Cc1[nH]c(C)c(C(=O)/C=C/c2ccc([N+](=O)[O-])cc2)c1C	inconclusive: 20.6 µM [activator, partial curve, poor fit]	–
Cc1ccc(C(=O)O)cc1-c1ccc(/C=C2/NC(=O)N(c3ccccc3)C2=O)o1	inconclusive: 23.1 µM [activator, single point]	–
Cc1ccc(SCc2nc3ccccc3[nH]2)cc1	inconclusive: 32.6 µM [activator, partial curve, poor fit]	–
COC(=O)c1[nH]nc(C(=O)OC(C)(C)C)c1-c1ccccc1	inconclusive: 18.4 µM [activator, partial curve, poor fit]	–
CCN(CC)CCCn1c2c(c(SCC(=O)Nc3ccc4c(c3)OCO4)nc1=O)CCC2	inconclusive: 29.1 µM [activator, single point]	–
Fc1ccc(C(Nc2ccccn2)c2c[nH]c3ccccc23)cc1 (stereo unspecified)	–	inactive: -7.78%
CCN(CC(=O)Nc1ccc(OC)cc1)C(=O)Cc1ccsc1	–	inactive: -3.66%
CCN(C(=O)COC(=O)c1ccc([N+](=O)[O-])o1)c1cccc2ccccc12	inconclusive: 18.4 µM [activator, single point]	–
CSc1c(C#N)c(N)nc2sc(C(=O)c3ccc(Cl)c(Cl)c3)c(N)c12	inconclusive: 6.51 µM [activator, full curve, poor fit]	–
O=c1c2c3c(sc2nc(N2CCNCC2)n1CCc1ccccc1)CCCCC3	–	inactive: -7%
Cn1c(C=O)c(C#Cc2ccccc2)c2ccccc21	inconclusive: 23.1 µM [activator, single point]	–
COc1ccccc1Nc1ncnc2ccccc12	–	inactive: -30.4%
CC(C)C(=O)Nc1ccc2c(c1)nc(CCN1CCN(c3ccccc3)CC1)n2C	inconclusive: 20.6 µM [activator, single point]	–
CCN(CC)CCN(C(=O)c1ccc(S(=O)(=O)N(C)C2CCCCC2)cc1)c1nc2ccc(OC)cc2s1	inconclusive: 29.1 µM [activator, single point]	–
Cc1cccn2c(=O)c3cc(C#N)c(=N)n(CCCN4CCOCC4)c3nc12	active: 4.11 µM	–
c1ccc(CNc2c3ccccc3nc3ccccc23)cc1	inconclusive: 29.1 µM [activator, single point]	–
COc1ccc(N(C(=O)C2CCCCC2)S(=O)(=O)c2cccc3cccnc23)cc1	inconclusive: 18.4 µM [activator, partial curve, poor fit]	–
O=C(CSc1ccc(-c2ccccn2)nn1)NCc1ccc(Cl)cc1	inconclusive: 29.1 µM [activator, single point]	–
O=C(Nc1ccccc1)c1nnsc1S(=O)(=O)c1ccc(Cl)cc1	inconclusive: 29.1 µM [activator, single point]	–
O=C(OCC(=O)N1CCN(c2ccccc2)CC1)c1ccc(Cl)nc1	inconclusive: 3.26 µM [activator, partial curve, poor fit]	–
CCc1ccc(NC(=O)C(=O)NNC(=O)c2cccs2)cc1	inconclusive: 29.1 µM [activator, single point]	–
O=C(NCC1COc2ccccc2O1)c1ccc(Cl)c(S(=O)(=O)N2CCCC2)c1 (stereo unspecified)	inconclusive: 29.1 µM [activator, single point]	–
